Differences between knockout arms are mostly noise.
Test system: SKBR3
Assay: relative cell number vs DMSO control (72 h) (% of DMSO); higher = less growth inhibition (more cells)
Protocol: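 QMAP-Seq: a pool of 5 breast cancer cell lines (ZR-75-1, SKBR3, HCC-38, MDA-MB-231, BT-20), each carrying 12 doxycycline-inducible Cas9 sgRNA perturbations (11 knockouts plus non-targeting sgNT), was treated with compounds for 72 h at four 10-fold doses (10 nM-10 uM or 1 nM-1 uM range). Barcodes were amplified and sequenced, and cell number was interpolated from 293T spike-in standard curves. The result is expressed as % of the median of DMSO wells. Two biological replicates.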

CN/C(=N\CCSCc1nc[nH]c1C)NC#N [Cimetidine]
Settings | relative cell number
sgRNA knockout: sgATF3, 10 nM | 122
sgRNA knockout: sgATF3, 100 nM | 99.4
sgRNA knockout: sgATF3, 1000 nM | 106.6
sgRNA knockout: sgATF3, 10000 nM | 103
sgRNA knockout: sgATF4, 10 nM | 94.9
sgRNA knockout: sgATF4, 100 nM | 115
sgRNA knockout: sgATF4, 1000 nM | 93.8
sgRNA knockout: sgATF4, 10000 nM | 111
sgRNA knockout: sgATF6, 10 nM | 105
sgRNA knockout: sgATF6, 100 nM | 117
sgRNA knockout: sgATF6, 1000 nM | 93.01
sgRNA knockout: sgATF6, 10000 nM | 104
sgRNA knockout: sgATG7, 10 nM | 122
sgRNA knockout: sgATG7, 100 nM | 79.4
sgRNA knockout: sgATG7, 1000 nM | 88.8
sgRNA knockout: sgATG7, 10000 nM | 112
sgRNA knockout: sgERN1, 10 nM | 88
sgRNA knockout: sgERN1, 100 nM | 105
sgRNA knockout: sgERN1, 1000 nM | 102
sgRNA knockout: sgERN1, 10000 nM | 114.5
sgRNA knockout: sgHSF1, 10 nM | 110
sgRNA knockout: sgHSF1, 100 nM | 85.32
sgRNA knockout: sgHSF1, 1000 nM | 96.7
sgRNA knockout: sgHSF1, 10000 nM | 98.8
sgRNA knockout: sgHSF2, 10 nM | 89.9
sgRNA knockout: sgHSF2, 100 nM | 101
sgRNA knockout: sgHSF2, 1000 nM | 92.1
sgRNA knockout: sgHSF2, 10000 nM | 93
sgRNA knockout: sgKEAP1, 10 nM | 106
sgRNA knockout: sgKEAP1, 100 nM | 106
sgRNA knockout: sgKEAP1, 1000 nM | 91.9
sgRNA knockout: sgKEAP1, 10000 nM | 94.1
sgRNA knockout: sgNFE2L2, 10 nM | 103
sgRNA knockout: sgNFE2L2, 100 nM | 98
sgRNA knockout: sgNFE2L2, 1000 nM | 95.2
sgRNA knockout: sgNFE2L2, 10000 nM | 120
sgRNA knockout: sgSLC35F2, 10 nM | 99.1
sgRNA knockout: sgSLC35F2, 100 nM | 126
sgRNA knockout: sgSLC35F2, 1000 nM | 91.2
sgRNA knockout: sgSLC35F2, 10000 nM | 102
sgRNA knockout: sgXBP1, 10 nM | 113
sgRNA knockout: sgXBP1, 100 nM | 106
sgRNA knockout: sgXBP1, 1000 nM | 108
sgRNA knockout: sgXBP1, 10000 nM | 116

CC(C)(C)c1cnc(CSc2cnc(NC(=O)C3CCNCC3)s2)o1 [SNS032]
Settings | relative cell number
sgRNA knockout: sgATF3, 10 nM | 76.8
sgRNA knockout: sgATF3, 100 nM | 88.9
sgRNA knockout: sgATF3, 1000 nM | 7.3
sgRNA knockout: sgATF3, 10000 nM | 16.5
sgRNA knockout: sgATF4, 10 nM | 109
sgRNA knockout: sgATF4, 100 nM | 83.7
sgRNA knockout: sgATF4, 1000 nM | 10.2
sgRNA knockout: sgATF4, 10000 nM | 15.6
sgRNA knockout: sgATF6, 10 nM | 97.2
sgRNA knockout: sgATF6, 100 nM | 69.9
sgRNA knockout: sgATF6, 1000 nM | 8.27
sgRNA knockout: sgATF6, 10000 nM | 14.4
sgRNA knockout: sgATG7, 10 nM | 114
sgRNA knockout: sgATG7, 100 nM | 86.4
sgRNA knockout: sgATG7, 1000 nM | 5.87
sgRNA knockout: sgATG7, 10000 nM | 16.6
sgRNA knockout: sgERN1, 10 nM | 106
sgRNA knockout: sgERN1, 100 nM | 95.7
sgRNA knockout: sgERN1, 1000 nM | 12.3
sgRNA knockout: sgERN1, 10000 nM | 14.9
sgRNA knockout: sgHSF1, 10 nM | 79.4
sgRNA knockout: sgHSF1, 100 nM | 83.5
sgRNA knockout: sgHSF1, 1000 nM | 8.63
sgRNA knockout: sgHSF1, 10000 nM | 18.8
sgRNA knockout: sgHSF2, 10 nM | 100
sgRNA knockout: sgHSF2, 100 nM | 66.3
sgRNA knockout: sgHSF2, 1000 nM | 12.3
sgRNA knockout: sgHSF2, 10000 nM | 14.3
sgRNA knockout: sgKEAP1, 10 nM | 92
sgRNA knockout: sgKEAP1, 100 nM | 71.8
sgRNA knockout: sgKEAP1, 1000 nM | 5.56
sgRNA knockout: sgKEAP1, 10000 nM | 13.6
sgRNA knockout: sgNFE2L2, 10 nM | 117
sgRNA knockout: sgNFE2L2, 100 nM | 82.5
sgRNA knockout: sgNFE2L2, 1000 nM | 9.68
sgRNA knockout: sgNFE2L2, 10000 nM | 15.8
sgRNA knockout: sgSLC35F2, 10 nM | 112
sgRNA knockout: sgSLC35F2, 100 nM | 84.8
sgRNA knockout: sgSLC35F2, 1000 nM | 6.82
sgRNA knockout: sgSLC35F2, 10000 nM | 10.4
sgRNA knockout: sgXBP1, 10 nM | 95.3
sgRNA knockout: sgXBP1, 100 nM | 98.8
sgRNA knockout: sgXBP1, 1000 nM | 6.48
sgRNA knockout: sgXBP1, 10000 nM | 13.9

CC(C)c1cc(-c2n[nH]c(=O)n2-c2ccc3c(ccn3C)c2)c(O)cc1O [Ganetespib]
Settings | relative cell number
sgRNA knockout: sgATF3, 1 nM | 84.9
sgRNA knockout: sgATF3, 10 nM | 115
sgRNA knockout: sgATF3, 100 nM | 32.3
sgRNA knockout: sgATF3, 1000 nM | 35.2
sgRNA knockout: sgATF4, 1 nM | 91.9
sgRNA knockout: sgATF4, 10 nM | 96.5
sgRNA knockout: sgATF4, 100 nM | 29.22
sgRNA knockout: sgATF4, 1000 nM | 30
sgRNA knockout: sgATF6, 1 nM | 92.7
sgRNA knockout: sgATF6, 10 nM | 89
sgRNA knockout: sgATF6, 100 nM | 30.3
sgRNA knockout: sgATF6, 1000 nM | 30.1
sgRNA knockout: sgATG7, 1 nM | 89.4
sgRNA knockout: sgATG7, 10 nM | 88.5
sgRNA knockout: sgATG7, 100 nM | 26.6
sgRNA knockout: sgATG7, 1000 nM | 36.4
sgRNA knockout: sgERN1, 1 nM | 79.2
sgRNA knockout: sgERN1, 10 nM | 116
sgRNA knockout: sgERN1, 100 nM | 29.9
sgRNA knockout: sgERN1, 1000 nM | 29.5
sgRNA knockout: sgHSF1, 1 nM | 95.5
sgRNA knockout: sgHSF1, 10 nM | 105
sgRNA knockout: sgHSF1, 100 nM | 25.854
sgRNA knockout: sgHSF1, 1000 nM | 34.7
sgRNA knockout: sgHSF2, 1 nM | 83.6
sgRNA knockout: sgHSF2, 10 nM | 72.6
sgRNA knockout: sgHSF2, 100 nM | 27.1
sgRNA knockout: sgHSF2, 1000 nM | 36.2
sgRNA knockout: sgKEAP1, 1 nM | 85.9
sgRNA knockout: sgKEAP1, 10 nM | 80.6
sgRNA knockout: sgKEAP1, 100 nM | 30.5
sgRNA knockout: sgKEAP1, 1000 nM | 33.9
sgRNA knockout: sgNFE2L2, 1 nM | 101
sgRNA knockout: sgNFE2L2, 10 nM | 91.7
sgRNA knockout: sgNFE2L2, 100 nM | 32.5
sgRNA knockout: sgNFE2L2, 1000 nM | 38.5
sgRNA knockout: sgSLC35F2, 1 nM | 96.46
sgRNA knockout: sgSLC35F2, 10 nM | 85.8
sgRNA knockout: sgSLC35F2, 100 nM | 33.6
sgRNA knockout: sgSLC35F2, 1000 nM | 38.6
sgRNA knockout: sgXBP1, 1 nM | 107
sgRNA knockout: sgXBP1, 10 nM | 78.3
sgRNA knockout: sgXBP1, 100 nM | 28.4
sgRNA knockout: sgXBP1, 1000 nM | 32.4

Reference: the supplement of paper PMC7661543
